{"source": "patent US20260063641A1", "about": "“COMPOSITIONS AND METHODS FOR LABELING AND DETECTING BINDING PARTNERS” (UNIVERSITY OF UTAH RESEARCH FOUNDATION, priority 2022, published 2026)", "test_system": "BRD2, BRD3 and BRD4 (BET proteins) and interactors", "assay": "BioTAC proximity labeling with label-free mass spectrometry-based proteomics of streptavidin-enriched biotinylated proteins", "format": "cell-based", "method": "Having determined that the BioTAC system could identify BRD4 as a (+)-JQ1 target in focused screens, it was evaluated as an unbiased target-ID method. To identify direct binders of (+)-JQ1 proteome-wide, BioTAC proximity labelling experiments were performed as described above, followed by label-free mass spectrometry-based proteomic analysis of biotinylated proteins enriched following a 30 minute treatment with 100 μM biotin plus DMSO or 1 μM Cpd1, and then 1 μM Cpd1 off-competed by pre-treatment with 10 μM free (+)-JQ1.\nHaving established conditions for determining the primary targets of small molecules using the BioTAC system, its utility in reading out the interactome sphere of (+)-JQ1 bound BET-proteins was next investigated. […] To quantitively evaluate the ability of the BioTAC system to successfully enrich the known interactome of (+)-JQ1 bound BET proteins, time course BioTAC proximity labelling experiments were performed at the 1 h and 4 h time points, and evaluated streptavidin-enriched biotinylated proteins using mass spectrometry-based proteomic analysis (FIG. 2A-C, FIG. 6). […]\n9 million HEK293 cells were plated into 15 cm dishes containing 12 mL of complete media (DMEM, 10% FBS, 1% pen/strep) and incubated overnight. […] Lysates were clarified by centrifuging at 16,000×g for 10 min and protein concentration determined by BCA assay. […]", "data": [{"smiles": "CC[C@H](C(=O)N1CCCC[C@H]1C(=O)O[C@H](CCc1ccc(OC)c(OC)c1)c1ccccc1OCC(=O)NCCOCCOCCOCCNC(=O)C[C@@H]1N=C(c2ccc(Cl)cc2)c2c(sc(C)c2C)-n2c(C)nnc21)c1cc(OC)c(OC)c(OC)c1", "note": "[Cpd1, (R)-1-(2-((17-((S)-4-(4-Chlorophenyl)-2,3,9-trimethyl-6H-thieno[3,2-f][1,2,4]triazolo[4,3-a][1,4]diazepin-6-yl)-2,16-dioxo-6,9,12-trioxa-3,15-diazaheptadecyl)oxy)phenyl)-3-(3,4-dimethoxyphenyl)propyl (S)-1-((S)-2-(3,4,5-trimethoxyphenyl)butanoyl)piperidine-2-carboxylate]", "values": [{"measurement": "share of statistically significant enriched and (+)-JQ1 rescued hits also present in the Lambert dataset", "setting": "4 hr timepoint hits", "result": 60, "unit": "%"}, {"measurement": "percent enrichment of reference interactors in hits vs 4,000 random protein sets", "setting": "4 hr timepoint, away from mean of random chance", "result": "> 7", "unit": "standard deviations"}]}]}
